Out of some 580,000 compounds screened, about 6,100 (1.1%) were called active. The shares of active, inactive and inconclusive entries below differ from those in the screen. Calls come from the whole dose curve; as a rule, active = well fitted inhibition curve with a large enough effect; inconclusive = small, poorly fitted or top-dose-only effect, or another doubt; inactive = no such curve, though single readings can be large or run the other way. A potency beside an inconclusive call is a rough fit, not a confirmed value.
The molecules below were run against Polyunsaturated fatty acid lipoxygenase ALOX12 (Homo sapiens) (UniProt P18054) (assay: Primary qHTS assay for inhibitors of human arachidonate 12S-lipoxygenase (ALOX12): Round 2). Details: purified 12hLO, xylenol orange hydroperoxide absorbance; activity change, negative = inhibition: at 108 µM (top of the series) unless noted.
Method in brief: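 Purified human 12hLO (150 nM final) in 25 mM Hepes, 0.01% Triton X-100, pH 7.0 was preincubated 15 min at room temperature with compound. Then 40 uM arachidonic acid was added, 30 min. Hydroperoxide was read by Fe-XO absorbance ratio 573/405 nm.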
% is set by controls: 0 for no effect and ±100 for the full control effect; potency is the fitted concentration of half-maximal effect.

Amino acid sequences for entries named in this document (tags omitted). A change or cut given only in a name is not applied to a line headed by its entry.
UniProt P18054: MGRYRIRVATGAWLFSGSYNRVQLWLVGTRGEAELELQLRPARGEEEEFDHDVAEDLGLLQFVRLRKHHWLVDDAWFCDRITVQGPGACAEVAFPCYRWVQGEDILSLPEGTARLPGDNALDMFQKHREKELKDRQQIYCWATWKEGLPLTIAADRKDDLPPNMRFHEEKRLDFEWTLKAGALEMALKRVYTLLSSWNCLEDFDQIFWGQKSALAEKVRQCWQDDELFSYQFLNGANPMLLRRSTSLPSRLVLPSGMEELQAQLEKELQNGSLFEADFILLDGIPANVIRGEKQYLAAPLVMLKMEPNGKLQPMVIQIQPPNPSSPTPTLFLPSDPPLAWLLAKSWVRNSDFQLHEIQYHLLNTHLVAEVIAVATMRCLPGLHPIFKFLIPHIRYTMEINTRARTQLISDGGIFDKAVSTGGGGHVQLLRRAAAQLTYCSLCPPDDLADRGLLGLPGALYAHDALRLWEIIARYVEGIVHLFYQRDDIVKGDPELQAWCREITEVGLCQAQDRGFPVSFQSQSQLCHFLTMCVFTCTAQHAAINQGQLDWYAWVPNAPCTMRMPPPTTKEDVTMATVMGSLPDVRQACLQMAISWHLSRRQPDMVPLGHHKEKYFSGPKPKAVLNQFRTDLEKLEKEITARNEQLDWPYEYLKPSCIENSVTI

SMILES	Potency	activity change, negative = inhibition
COc1cc2c(cc1OC)C(C[C@H]1CN(C(=O)Nc3cccc(Cl)c3)CC[C@H]1CC(=O)O)=NCC2	inconclusive: 20 µM [inhibitor, full curve, poor fit]	–
CCc1nnc(NS(=O)(=O)c2ccc(NC(=O)c3ccc(Cl)cc3)cc2)s1	–	inactive: -10.9%
CCOc1nc2ccccc2nc1N1CCC(C(=O)Nc2ccc(C(C)=O)cc2)CC1	inconclusive: 141 µM [inhibitor, partial curve, poor fit]	–
O=C(NCCc1ccccc1)C(c1ccccc1)N(C(=O)c1csnn1)C1CC1 (stereo not drawn)	–	inactive: -11.7%
COc1ccc(Cn2c(=O)[nH]c3cc(C(=O)NCCCN4CCCCC4)ccc3c2=O)cc1	–	inactive: -0.692%
CCOC(=O)n1cnc2nc(N)nc(SC)c21	inconclusive: 7.94 µM [inhibitor, full curve, poor fit]	–
COc1ccc(OCCn2cnc(Cl)c2Cl)cc1	inconclusive: 79.4 µM [inhibitor, partial curve, poor fit]	–
O=C(Cc1ccccc1)c1c[nH]c(C(=O)O)c1	inconclusive: 44.7 µM [inhibitor, partial curve, poor fit]	–
COc1cc(OC)cc(-c2c(C#Cc3ccsc3)c3cc(Br)ccc3n2C)c1	inconclusive: 89.1 µM [inhibitor, single point]	–
Cc1ccc(Cc2c(C3CCCCC3)nc3cc(C)c(Br)c(C)n23)cc1	inconclusive: 112 µM [inhibitor, single point]	–
CC(C)CCn1c(SCCCc2ccccc2)nc2c1c(=O)[nH]c(=O)n2C	inconclusive: 39.8 µM [inhibitor, partial curve, poor fit]	–
CC(C)C[C@H]1CN([C@@H](Cc2ccccc2)CN2CCC[C@@H]2CN2C(=O)C(=O)NC[C@@H]2Cc2ccccc2)C(=O)C(=O)N1CCc1ccccc1	–	inactive: -0.459%
O=C(c1ccc(C(F)(F)F)cc1)N1CCn2c(nnc2C2CC2)C1	–	inactive: 24.4% [at 176 µM]
O=C(NC1CCSc2ccccc21)c1cc2c(s1)CCC2 (stereo not drawn)	inconclusive: 4.47 µM [inhibitor, full curve, poor fit]	–
CCCOc1cc(C)c(Cl)cc1S(=O)(=O)N1CCCCC1	inconclusive: 0.251 µM [inhibitor, full curve, poor fit]	–
O=C(CC1CCCCC1)NCc1nnc2cc(-c3nc(C4CC4)no3)ccn12	–	inactive: -12.5%
CCCN1CCN(C(=O)CCS(=O)(=O)c2cc3c(cc2Cl)NC(=O)CO3)CC1	–	inactive: 27.5%
CC(C)c1ccccc1NC(=O)COC(=O)CCN1C(=O)/C(=C\C=C\c2ccccc2)SC1=S	–	inactive: -14.8%
COc1ccc(-c2cc(C(=O)Nc3c(C)nn(Cc4ccc(Cl)cc4)c3C)no2)cc1	–	inactive: -22.9%
O=C(O)c1cccc(Nc2nc3ccccc3nc2NS(=O)(=O)c2ccccc2)c1	inconclusive: 44.7 µM [inhibitor, partial curve, poor fit]	–
CCCCNc1c(-c2cccc(-c3ccc(OC)cc3)c2)nc2cc(C)ccn12	inconclusive: 50.1 µM [inhibitor, partial curve, poor fit]	–
CN(C)CCCN(C(=O)c1cccc(C(F)(F)F)c1)c1nc2ccc(F)cc2s1	active: 35.5 µM	–

Molecules from the list above with a thiophene ring, fused or not, in the order listed:
SMILES	Potency	activity change, negative = inhibition
COc1cc(OC)cc(-c2c(C#Cc3ccsc3)c3cc(Br)ccc3n2C)c1	inconclusive: 89.1 µM [inhibitor, single point]	–
O=C(NC1CCSc2ccccc21)c1cc2c(s1)CCC2 (stereo not drawn)	inconclusive: 4.47 µM [inhibitor, full curve, poor fit]	–

The results go on.

SMILES	Potency	activity change, negative = inhibition
CN1CCN(c2oc(-c3ccc(C(C)(C)C)cc3)nc2C#N)CC1	inconclusive: 112 µM [inhibitor, single point]	–
Fc1ccc(NC(=S)Nc2ccc(Br)cc2)cc1	inconclusive: 44.7 µM [inhibitor, partial curve, poor fit]	–
COc1cc(OC)c(C2C(C#N)=C(N)Oc3cc(C)n(CCCN4CCOCC4)c(=O)c32)cc1OC (stereo not drawn)	–	inactive: 2.75%
CNC(=O)[C@H]1C[C@H](Oc2ccccc2)CN1C(=O)CCc1c[nH]c2ccccc12	–	inactive: 13.3%
CSC(=S)N/N=C/c1ccc(Br)cc1	–	inactive: -1.12%
O=S(=O)(Nc1ccccc1C(F)(F)F)c1ccc(N2CCCCS2(=O)=O)cc1	inconclusive: 56.2 µM [inhibitor, partial curve, poor fit]	–
O=C(c1ccccc1)c1ccc(OCC(O)CNCc2ccc(Cl)cc2)cc1 (stereo not drawn)	active: 7.08 µM	–
NC(=S)N/N=C/c1ccc(-c2cccc([N+](=O)[O-])c2)o1	inconclusive: 7.94 µM [inhibitor, full curve]	–
CCN(CC)CCNC(=O)c1nc(-c2ccc3cc[nH]c3c2)no1	inconclusive: 79.4 µM [inhibitor, single point]	–
COc1cccc(NS(=O)(=O)c2ccc3c(c2)C2C=CCC2C(c2ccc(C(=O)O)cc2)N3)c1 (stereo not drawn)	active: 12.6 µM	–
CNc1snc(C)c1C(=O)NCCc1ccc(OC)cc1	inconclusive: 89.1 µM [inhibitor, single point]	–
Cc1cc(C(=O)OCC(=O)NCc2ccc(F)cc2)c2ccccc2n1	–	inconclusive: -30.1% [inhibitor]
Cc1cccc(C)c1NC(=O)Cn1c(=O)n(Cc2ccccc2)c(=O)c2c(C)c(C(=O)N(C)C)sc21	inconclusive: 141 µM [inhibitor, partial curve, poor fit]	–
COC(=O)CSc1nc(-c2ccccc2)cc(-c2ccco2)c1C#N	–	inactive: 0%
CCc1c(-c2ccc(C)cc2)nc2ccccc2c1C(=O)O	inconclusive: 4.47 µM [inhibitor, full curve, poor fit]	–
CCN1CCC(=O)C(C)C1C (stereo not drawn)	–	inconclusive: -33.6% [inhibitor]
O=C1CC2(CCN(C(=O)C3(c4ccc(F)cc4)CCOCC3)C2)C(=O)N1 (stereo not drawn)	inconclusive: 89.1 µM [inhibitor, partial curve, poor fit]	–
COc1ccc(Cl)cc1NS(=O)(=O)c1ccc2[nH]c3c(c2c1)CCCC3	inconclusive: 70.8 µM [inhibitor, partial curve, poor fit]	–
CCCCCCCOC(=O)c1c(C)oc2ccc(NS(=O)(=O)c3cccs3)cc12	inconclusive: 100 µM [inhibitor, partial curve, poor fit]	–
CCN1C(=O)[C@H]2[C@@H](c3ccccc3)N[C@]3(CCCN(Cc4ccc(C)cc4)C3=O)[C@H]2C1=O	active: 4.47 µM	–
CCOc1ccc([C@H]2C3=C(C[C@H](c4ccc(OC)c(OC)c4)CC3=O)Nc3[nH][nH]c(=O)c32)cc1	inconclusive: 112 µM [inhibitor, single point]	–

Reference: PubChem BioAssay AID1671190 (National Center for Advancing Translational Sciences (NCATS), 2021)
